In one assay the target is T1, FLAG-Lonp-1, P36776.
T1 chain: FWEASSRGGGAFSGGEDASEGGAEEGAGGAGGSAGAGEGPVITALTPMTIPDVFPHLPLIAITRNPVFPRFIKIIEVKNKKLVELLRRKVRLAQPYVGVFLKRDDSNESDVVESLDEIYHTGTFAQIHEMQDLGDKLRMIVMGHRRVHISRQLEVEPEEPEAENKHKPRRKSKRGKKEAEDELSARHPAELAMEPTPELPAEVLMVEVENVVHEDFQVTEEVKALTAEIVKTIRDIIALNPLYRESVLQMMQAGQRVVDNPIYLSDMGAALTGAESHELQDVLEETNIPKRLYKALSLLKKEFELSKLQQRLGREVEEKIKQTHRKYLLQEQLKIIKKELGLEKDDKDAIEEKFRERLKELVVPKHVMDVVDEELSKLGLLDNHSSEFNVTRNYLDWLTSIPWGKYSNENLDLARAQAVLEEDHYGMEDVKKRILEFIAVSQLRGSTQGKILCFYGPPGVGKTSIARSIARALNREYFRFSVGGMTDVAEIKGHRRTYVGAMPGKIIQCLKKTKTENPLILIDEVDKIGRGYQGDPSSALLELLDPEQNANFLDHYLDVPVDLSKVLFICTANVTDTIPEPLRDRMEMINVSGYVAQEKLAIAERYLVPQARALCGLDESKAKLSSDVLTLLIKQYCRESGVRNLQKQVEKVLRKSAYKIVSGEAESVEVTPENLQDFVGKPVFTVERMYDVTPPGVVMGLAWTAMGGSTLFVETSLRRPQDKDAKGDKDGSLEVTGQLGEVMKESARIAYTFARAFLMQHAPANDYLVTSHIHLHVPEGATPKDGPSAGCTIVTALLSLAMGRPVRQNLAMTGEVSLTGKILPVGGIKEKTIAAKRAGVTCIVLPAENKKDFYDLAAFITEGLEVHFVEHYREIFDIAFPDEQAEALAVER
The assay can be described thus: co-IP; HEK293 cells transfected with FLAG-Lonp-1, 24 h; complexes isolated on FLAG Dynabeads; western blot. The conditions noted are these: remark: other sources report otherwise.

Sequences of proteins named here, by UniProt entry; tags and fusion partners are left off. A change or cut given only in a name is not applied to a line headed by its entry.
UniProt P10591: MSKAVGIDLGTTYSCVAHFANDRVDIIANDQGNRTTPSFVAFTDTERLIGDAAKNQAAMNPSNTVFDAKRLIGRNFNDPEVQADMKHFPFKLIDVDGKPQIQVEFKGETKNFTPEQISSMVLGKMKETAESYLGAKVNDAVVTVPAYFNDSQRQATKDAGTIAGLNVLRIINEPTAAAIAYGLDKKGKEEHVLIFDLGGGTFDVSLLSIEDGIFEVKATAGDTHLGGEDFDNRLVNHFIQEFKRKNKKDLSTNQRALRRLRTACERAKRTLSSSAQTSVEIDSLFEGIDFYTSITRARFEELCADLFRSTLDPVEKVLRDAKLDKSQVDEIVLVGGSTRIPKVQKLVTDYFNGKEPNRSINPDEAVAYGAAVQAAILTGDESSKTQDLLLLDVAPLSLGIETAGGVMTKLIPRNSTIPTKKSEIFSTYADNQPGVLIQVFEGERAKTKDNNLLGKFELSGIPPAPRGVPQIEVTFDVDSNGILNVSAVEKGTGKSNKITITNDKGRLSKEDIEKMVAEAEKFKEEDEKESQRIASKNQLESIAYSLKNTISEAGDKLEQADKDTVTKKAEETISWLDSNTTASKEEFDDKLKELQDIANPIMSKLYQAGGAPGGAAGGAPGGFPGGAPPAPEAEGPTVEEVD

The target in assay [1] is FLAG-Ssa1 V435F (substrate-binding deficient mutant) (S. cerevisiae) (UniProt P10591). Briefly: co-IP; yeast extract (200 ug) on anti-Flag M2 magnetic beads, 4°C overnight; 50 mM Na-phosphate pH 8.0, 300 mM NaCl, 0.01% Tween-20; eluted with 3x FLAG peptide; western blot.
Assay [2] concerns the target Ssa1 wild type, epitope-tagged (FLAG-Ssa1, GFP-Ssa1, HA-Ssa1) (S. cerevisiae) (UniProt P10591). The assay is described as above.

No constants are given. Whether binding was seen depends on the method and setting. Binding seen in cells or lysates may run through a third protein. Some entries that bind do so weakly or less than the wild type. For part of these data: Sequences can lack the tags named with a protein.

B1: Hsp110, Q92598 1-858 (protein)
chain: MSVVGLDVGSQSCYIAVARAGGIETIANEFSDRCTPSVISFGSKNRTIGVAAKNQQITHANNTVSNFKRFHGRAFNDPFIQKEKENLSYDLVPLKNGGVGIKVMYMGEEHLFSVEQITAMLLTKLKETAENSLKKPVTDCVISVPSFFTDAERRSVLDAAQIVGLNCLRLMNDMTAVALNYGIYKQDLPSLDEKPRIVVFVDMGHSAFQVSACAFNKGKLKVLGTAFDPFLGGKNFDEKLVEHFCAEFKTKYKLDAKSKIRALLRLYQECEKLKKLMSSNSTDLPLNIECFMNDKDVSGKMNRSQFEELCAELLQKIEVPLYSLLEQTHLKVEDVSAVEIVGGATRIPAVKERIAKFFGKDISTTLNADEAVARGCALQCAILSPAFKVREFSVTDAVPFPISLIWNHDSEDTEGVHEVFSRNHAAPFSKVLTFLRRGPFELEAFYSDPQGVPYPEAKIGRFVVQNVSAQKDGEKSRVKVKVRVNTHGIFTISTASMVEKVPTEENEMSSEADMECLNQRPPENPDTDKNVQQDNSEAGTQPQVQTDAQQTSQSPPSPELTSEENKIPDADKANEKKVDQPPEAKKPKIKVVNVELPIEANLVWQLGKDLLNMYIETEGKMIMQDKLEKERNDAKNAVEEYVYEFRDKLCGPYEKFICEQDHQNFLRLLTETEDWLYEEGEDQAKQAYVDKLEELMKIGTPVKVRFQEAEERPKMFEELGQRLQHYAKIAADFRNKDEKYNHIDESEMKKVEKSVNEVMEWMNNVMNAQAKKSLDQDPVVRAQEIKTKIKELNNTCEPVVTQPKPKIESPKLERTPNGPNIDKKEEDLEDKNNFGAEPPHQNGECYPNEKNSVNMDLD
In the case of B1, the binding entry with FLAG-Lonp-1, P36776 was “no binding”.

B2: Rnr2 (protein, UniProt P09938 1-399)
chain: MPKETPSKAAADALSDLEIKDSKSNLNKELETLREENRVKSDMLKEKLSKDAENHKAYLKSHQVHRHKLKEMEKEEPLLNEDKERTVLFPIKYHEIWQAYKRAEASFWTAEEIDLSKDIHDWNNRMNENERFFISRVLAFFAASDGIVNENLVENFSTEVQIPEAKSFYGFQIMIENIHSETYSLLIDTYIKDPKESEFLFNAIHTIPEIGEKAEWALRWIQDADALFGERLVAFASIEGVFFSGSFASIFWLKKRGMMPGLTFSNELICRDEGLHTDFACLLFAHLKNKPDPAIVEKIVTEAVEIEQRYFLDALPVALLGMNADLMNQYVEFVADRLLVAFGNKKYYKVENPFDFMENISLAGKTNFFEKRVSDYQKAGVMSKSTKQEAGAFTFNEDF
For the molecule B2, the values for the binding result in assay [1] and in assay [2] were “no binding” and “binds”, respectively.

The values above are taken from paper PMC9629621.
